Reference: paper PMC11374953, “Heteroaryl derivatives of suvorexant as OX1R selective PET ligand candidates: Cu-mediated ^18F-fluorination of boroxines, in vitro and initial in vivo evaluation” (EJNMMI Research, 2024)

Test: Dynamic small animal PET imaging of the rat brain
Format: in vivo
Conditions: any time after tracer injection
Procedure: Small animal PET experiments in rats were performed to allow for an initial comparison in single animals that were injected with [^18F]1c or [^18F[1f alone, after preinjection of suvorexant (1 mg/kg), and after pretreatment with cyclosporine A (25 mg/kg) (Fig. 3). […] Therefore, to elucidate the P-gp-mediated transport of the compounds, specific experiments were performed.
Fig. 3 Time-activity curves and horizontal PET slices of the rat brain after injection of [^18F]1c (A, C) and [^18F]1f (B, D). Single animals were injected with the tracer alone (“control”, blue) compared to animals preinjected with suvorexant (1 mg/kg, 15 min prior to tracer injection, each n = 1; “blocking”, red) or cyclosporine A (25 mg/kg, 30 min prior to tracer injection, each n = 1; green)
Ten- to 13-week-old female CD Sprague–Dawley rats (250–300 g, Charles River) were housed with free access to standard rat chow (Purina) and water at all times. Dynamic small animal PET scans were performed on an Inveon™ microPET scanner (Siemens Healthineers AG, Erlangen, Germany). All rats were continuously anesthetized using isoflurane (2–3% in oxygen, 0.8 L/min) and placed on a heating pad (37 °C) during the PET scan. […] The data obtained were finally converted into values expressed as percent of injected dose per gram (%ID/g).

SMILES | specific binding in the rat brain by PET
Cc1ccc(-n2nccn2)c(C(=O)N2CCCN(c3nc4ccc([18F])cc4s3)CC2)c1 [[^18F]1c, [4-(6-[^18F]fluorobenzo[d]thiazol-2-yl)-1,4-diazepan-1-yl][5-methyl-2-(2H-1,2,3-triazol-2-yl)phenyl]methanone] | No specific binding
CC[C@H](C)[C@H]1CN(c2nc3ccc([18F])cc3s2)CCCN1C(=O)c1cc(C)ccc1-n1nccn1 [[^18F]1f, {(S)-2-[(S)-sec-butyl]-4-(6-[^18F]fluorobenzo[d]thiazol-2-yl)-1,4-diazepan-1-yl}[5-methyl-2-(2H-1,2,3-triazol-2-yl)phenyl]methanone] | No specific binding
